Some of these results come from one statement about several compounds together.
The compounds below were run on CNQX-labeled non-NMDA receptors (assay: Inhibition of EAA receptor ligand binding, CNQX (CNQX-labeled non-NMDA receptors)). Settings: data in Table II.

Affinity for CNQX-labeled non-NMDA receptors (in words), significant affinity:
O=c1cc(CP(=O)(O)O)c2c(Cl)cc(Cl)cc2[nH]1 [Example 3, 5,7-Dichloro-4-phosphonomethylquinolin-2-one]
O=c1cc(CP(=O)(O)O)c2ccc(I)cc2[nH]1 [Example 4, 7-Iodo-4-phosphonomethylquinolin-2-one]
O=c1cc(CP(=O)(O)O)c2cc(Cl)c(Cl)cc2[nH]1 [Example 5, 6,7-Dichloro-4-phosphonomethylquinolin-2-one]
O=c1cc(CP(=O)(O)O)c2ccc(Cl)cc2[nH]1 [Example 2, 7-Chloro-4-phosphonomethylquinolin-2-one]
